Experimental data published in patent US6946544.
These are yes or no findings as the source states them, for the method shown. For some assays here: In cells and extracts the contact can be indirect. Some results given as binding are weak or reduced against the parent protein; the word gives no strength. For some assays here: Sequences can lack the tags named with a protein.

Sequences of proteins named here, by UniProt entry; tags and fusion partners are left off. A change or cut given only in a name is not applied to a line headed by its entry.
UniProt Q13489: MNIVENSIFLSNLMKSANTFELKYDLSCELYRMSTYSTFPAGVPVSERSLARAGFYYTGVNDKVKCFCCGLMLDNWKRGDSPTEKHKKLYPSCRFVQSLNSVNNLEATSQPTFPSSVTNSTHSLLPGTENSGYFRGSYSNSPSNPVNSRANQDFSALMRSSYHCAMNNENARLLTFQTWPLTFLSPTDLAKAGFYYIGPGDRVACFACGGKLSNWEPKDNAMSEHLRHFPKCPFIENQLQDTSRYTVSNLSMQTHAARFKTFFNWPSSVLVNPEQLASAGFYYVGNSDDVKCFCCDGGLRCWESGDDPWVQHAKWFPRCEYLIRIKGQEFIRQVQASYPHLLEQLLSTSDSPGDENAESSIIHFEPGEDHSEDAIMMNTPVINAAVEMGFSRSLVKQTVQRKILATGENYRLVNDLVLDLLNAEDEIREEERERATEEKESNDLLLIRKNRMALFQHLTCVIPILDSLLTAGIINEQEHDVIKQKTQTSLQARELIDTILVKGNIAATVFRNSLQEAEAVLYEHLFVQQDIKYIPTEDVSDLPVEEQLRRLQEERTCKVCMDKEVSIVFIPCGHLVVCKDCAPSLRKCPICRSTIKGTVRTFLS
UniProt P04386: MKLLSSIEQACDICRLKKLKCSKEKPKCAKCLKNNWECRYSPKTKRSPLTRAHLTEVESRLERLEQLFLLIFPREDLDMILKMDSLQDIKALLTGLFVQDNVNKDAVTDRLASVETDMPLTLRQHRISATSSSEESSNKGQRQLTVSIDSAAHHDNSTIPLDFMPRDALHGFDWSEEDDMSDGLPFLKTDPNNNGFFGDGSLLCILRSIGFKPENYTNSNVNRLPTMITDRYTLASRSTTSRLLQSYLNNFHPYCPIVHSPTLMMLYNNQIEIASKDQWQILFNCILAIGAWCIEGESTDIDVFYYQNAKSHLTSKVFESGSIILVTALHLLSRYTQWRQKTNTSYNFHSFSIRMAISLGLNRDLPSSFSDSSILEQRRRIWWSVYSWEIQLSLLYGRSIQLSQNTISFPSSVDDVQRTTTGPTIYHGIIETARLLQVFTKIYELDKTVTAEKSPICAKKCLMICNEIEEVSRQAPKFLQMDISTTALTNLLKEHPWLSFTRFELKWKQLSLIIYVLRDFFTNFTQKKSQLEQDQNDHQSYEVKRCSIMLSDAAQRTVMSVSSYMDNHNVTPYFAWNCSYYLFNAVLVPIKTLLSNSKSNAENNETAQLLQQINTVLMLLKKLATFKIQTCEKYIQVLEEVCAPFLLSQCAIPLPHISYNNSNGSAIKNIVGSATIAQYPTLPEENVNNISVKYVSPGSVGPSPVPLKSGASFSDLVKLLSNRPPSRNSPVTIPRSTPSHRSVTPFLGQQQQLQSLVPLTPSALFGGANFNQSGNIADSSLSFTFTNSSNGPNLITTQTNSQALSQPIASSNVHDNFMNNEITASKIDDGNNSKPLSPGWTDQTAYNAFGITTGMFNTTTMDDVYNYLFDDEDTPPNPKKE

Key:
[1] = target: T1, GST-XAF-1 fusion protein (Schistosoma japonicum; human) (UniProt Q6GPH4); assay: pull-down of 35S-labeled in vitro translated protein on GST-XAF-1 beads, cell-free, SDS-PAGE and autoradiography
T1 sequence: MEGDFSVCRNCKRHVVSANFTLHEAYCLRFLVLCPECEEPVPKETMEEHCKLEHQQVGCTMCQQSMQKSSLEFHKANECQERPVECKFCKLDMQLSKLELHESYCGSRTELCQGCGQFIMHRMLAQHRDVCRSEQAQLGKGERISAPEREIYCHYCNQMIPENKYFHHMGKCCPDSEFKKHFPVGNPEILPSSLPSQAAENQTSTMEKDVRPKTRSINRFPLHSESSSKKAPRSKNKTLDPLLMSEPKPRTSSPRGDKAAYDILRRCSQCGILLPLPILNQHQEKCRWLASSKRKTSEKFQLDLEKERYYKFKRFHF

[2] = target: T2, XAF-1 (XIAP associated factor 1), clone from the human placenta cDNA library in the yeast two-hybrid screen (human) (UniProt Q6GPH4); assay: yeast two-hybrid screen, XIAP as bait
T2 sequence: T1 sequence

| Substance | binding [1] | binding [2] |
| --- | --- | --- |
| 35S-labeled in vitro translated HIAP-1 (from UniProt Q13489 1-604) | binds | – |
| GAL4 DNA-binding domain fused to full-length XIAP (pAS2-XIAP bait) (from UniProt P04386 1-147; P98170 1-497) | – | binds |
